Laboratory results reported in patent US20110223202A1 (priority 2007, published 2011).
Where a sequence shows no end group, the ends are not given.

Assay: general procedure: Fmoc solid-phase peptide synthesis; Fmoc-Arg(Pbf)-Rink Amide-MBHA resin; benzotriazol-1-yl-oxytripyrrolidinophosphonium hexafluorophosphate with N-methyl
Details: whole synthesis, analytical reverse phase HPLC

GGGRRRRRRYGRKKRRQRRR
final HPLC purity: about 95%
